# No constants are given. Whether binding was seen depends on the method and setting. Binding seen in cells or lysates may run through a third protein. Some entries that bind do so weakly or less than the wild type. For some assays here: Tags and fused reporters may be left off the sequences shown.
# The chains behind the UniProt entries cited, without tags or fusion partners.
# UniProt Q96LD4: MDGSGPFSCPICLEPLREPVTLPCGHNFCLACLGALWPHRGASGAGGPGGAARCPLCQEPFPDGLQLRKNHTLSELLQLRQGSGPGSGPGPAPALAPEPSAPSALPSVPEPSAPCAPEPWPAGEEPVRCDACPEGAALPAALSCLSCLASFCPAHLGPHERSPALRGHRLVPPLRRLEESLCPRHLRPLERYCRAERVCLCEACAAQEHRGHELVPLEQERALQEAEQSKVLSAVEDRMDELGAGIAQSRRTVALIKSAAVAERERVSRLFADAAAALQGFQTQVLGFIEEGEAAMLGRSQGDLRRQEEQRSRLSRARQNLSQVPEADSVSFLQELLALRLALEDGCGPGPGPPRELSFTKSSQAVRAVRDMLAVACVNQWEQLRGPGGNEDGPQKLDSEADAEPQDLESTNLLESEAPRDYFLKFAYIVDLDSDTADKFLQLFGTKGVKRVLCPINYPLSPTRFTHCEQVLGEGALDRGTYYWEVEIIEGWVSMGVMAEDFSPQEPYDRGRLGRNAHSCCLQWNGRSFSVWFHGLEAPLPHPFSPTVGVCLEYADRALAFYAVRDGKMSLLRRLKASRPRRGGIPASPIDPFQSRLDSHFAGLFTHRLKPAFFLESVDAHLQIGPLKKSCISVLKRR
# UniProt P49841: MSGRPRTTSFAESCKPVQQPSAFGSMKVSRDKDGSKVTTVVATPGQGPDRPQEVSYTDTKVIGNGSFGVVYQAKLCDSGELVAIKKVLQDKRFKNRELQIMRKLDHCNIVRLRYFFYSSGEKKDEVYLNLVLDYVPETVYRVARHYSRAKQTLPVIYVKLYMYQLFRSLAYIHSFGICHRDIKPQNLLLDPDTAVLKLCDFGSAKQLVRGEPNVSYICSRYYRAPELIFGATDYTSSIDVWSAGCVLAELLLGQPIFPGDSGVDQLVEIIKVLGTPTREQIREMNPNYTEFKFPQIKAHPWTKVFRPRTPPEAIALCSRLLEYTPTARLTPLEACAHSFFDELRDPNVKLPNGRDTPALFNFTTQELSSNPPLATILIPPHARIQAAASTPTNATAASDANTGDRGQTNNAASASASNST
# T1: Adenosine deaminase acting on RNA (ADAR), endogenous (human (endogenous in THJ-29 T and FTD-133)) (UniProt P55265)
# T1 sequence: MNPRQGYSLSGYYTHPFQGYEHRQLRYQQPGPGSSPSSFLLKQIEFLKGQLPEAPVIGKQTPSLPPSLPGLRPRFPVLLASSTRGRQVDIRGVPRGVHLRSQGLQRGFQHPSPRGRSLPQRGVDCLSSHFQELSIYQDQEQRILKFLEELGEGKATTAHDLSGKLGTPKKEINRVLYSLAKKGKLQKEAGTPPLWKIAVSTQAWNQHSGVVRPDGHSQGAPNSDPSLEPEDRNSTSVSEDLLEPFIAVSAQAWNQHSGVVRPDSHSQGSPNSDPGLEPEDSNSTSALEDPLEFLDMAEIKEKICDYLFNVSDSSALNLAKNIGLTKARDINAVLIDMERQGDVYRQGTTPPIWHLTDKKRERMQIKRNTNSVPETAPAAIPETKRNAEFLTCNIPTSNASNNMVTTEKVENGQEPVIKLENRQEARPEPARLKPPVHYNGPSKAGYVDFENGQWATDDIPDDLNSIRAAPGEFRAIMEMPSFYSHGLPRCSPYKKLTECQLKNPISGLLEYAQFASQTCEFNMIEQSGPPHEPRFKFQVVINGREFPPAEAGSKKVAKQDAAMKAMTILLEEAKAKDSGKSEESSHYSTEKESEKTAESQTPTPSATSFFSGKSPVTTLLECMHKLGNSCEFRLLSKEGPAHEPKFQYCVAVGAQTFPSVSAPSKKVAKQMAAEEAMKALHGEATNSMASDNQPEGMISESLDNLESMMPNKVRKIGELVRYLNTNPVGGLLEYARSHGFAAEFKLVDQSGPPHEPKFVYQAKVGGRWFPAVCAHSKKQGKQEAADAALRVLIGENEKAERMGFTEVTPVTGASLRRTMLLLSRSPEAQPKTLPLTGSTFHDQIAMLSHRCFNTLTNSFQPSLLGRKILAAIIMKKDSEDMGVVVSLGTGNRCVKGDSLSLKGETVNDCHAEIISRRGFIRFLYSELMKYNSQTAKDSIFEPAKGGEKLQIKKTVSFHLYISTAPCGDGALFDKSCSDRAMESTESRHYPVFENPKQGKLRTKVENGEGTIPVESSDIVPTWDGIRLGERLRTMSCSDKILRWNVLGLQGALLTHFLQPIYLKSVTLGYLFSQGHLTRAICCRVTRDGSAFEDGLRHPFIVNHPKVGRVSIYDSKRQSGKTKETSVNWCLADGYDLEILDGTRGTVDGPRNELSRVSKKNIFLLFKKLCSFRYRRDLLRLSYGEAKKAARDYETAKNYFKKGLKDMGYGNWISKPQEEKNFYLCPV
# How the values were obtained:
# [1] = molecular target: T1, Adenosine deaminase acting on RNA (ADAR), endogenous (human (endogenous in THJ-29 T and FTD-133)); test: co-IP; immunoprecipitation, cells and tags not stated (Fig. 6B, E, F); for TRIM47 with ADAR also with the GSK-3β inhibitor CHIR99021 or with Myc-GSK-3β
# [2] = molecular target: Tripartite motif 47 (TRIM47), endogenous (human (endogenous in THJ-29 T and FTD-133)) (UniProt Q96LD4); test: as above
# [3] = molecular target: Tripartite motif 47 (TRIM47), endogenous (human (endogenous in THJ-29 T and FTD-133)) (UniProt Q96LD4); test: co-IP; endogenous TRIM47 and ADAR in THJ-29 T and FTD-133 cells; each precipitated in turn and blotted with antibodies against TRIM47 and ADAR; Co-IP kit (Thermo Fisher), antibody cross-linked to protein A/G agarose
# [4] = molecular target: Flag-TRIM47 (UniProt Q96LD4); test: co-IP; HA-ADAR and Flag-TRIM47 overexpressed in HEK293T cells
Molecule,binding [1],binding [2],binding [3],binding [4]
Glycogen synthase kinase-3β (GSK-3β) (from UniProt P49841 1-420),binds,binds,–,–
"Adenosine deaminase acting on RNA (ADAR), endogenous (protein, UniProt P55265 1-1226) MNPRQGYSLSGYYTHPFQGYEHRQLRYQQPGPGSSPSSFLLKQIEFLKGQLPEAPVIGKQTPSLPPSLPGLRPRFPVLLASSTRGRQVDIRGVPRGVHLRSQGLQRGFQHPSPRGRSLPQRGVDCLSSHFQELSIYQDQEQRILKFLEELGEGKATTAHDLSGKLGTPKKEINRVLYSLAKKGKLQKEAGTPPLWKIAVSTQAWNQHSGVVRPDGHSQGAPNSDPSLEPEDRNSTSVSEDLLEPFIAVSAQAWNQHSGVVRPDSHSQGSPNSDPGLEPEDSNSTSALEDPLEFLDMAEIKEKICDYLFNVSDSSALNLAKNIGLTKARDINAVLIDMERQGDVYRQGTTPPIWHLTDKKRERMQIKRNTNSVPETAPAAIPETKRNAEFLTCNIPTSNASNNMVTTEKVENGQEPVIKLENRQEARPEPARLKPPVHYNGPSKAGYVDFENGQWATDDIPDDLNSIRAAPGEFRAIMEMPSFYSHGLPRCSPYKKLTECQLKNPISGLLEYAQFASQTCEFNMIEQSGPPHEPRFKFQVVINGREFPPAEAGSKKVAKQDAAMKAMTILLEEAKAKDSGKSEESSHYSTEKESEKTAESQTPTPSATSFFSGKSPVTTLLECMHKLGNSCEFRLLSKEGPAHEPKFQYCVAVGAQTFPSVSAPSKKVAKQMAAEEAMKALHGEATNSMASDNQPEGMISESLDNLESMMPNKVRKIGELVRYLNTNPVGGLLEYARSHGFAAEFKLVDQSGPPHEPKFVYQAKVGGRWFPAVCAHSKKQGKQEAADAALRVLIGENEKAERMGFTEVTPVTGASLRRTMLLLSRSPEAQPKTLPLTGSTFHDQIAMLSHRCFNTLTNSFQPSLLGRKILAAIIMKKDSEDMGVVVSLGTGNRCVKGDSLSLKGETVNDCHAEIISRRGFIRFLYSELMKYNSQTAKDSIFEPAKGGEKLQIKKTVSFHLYISTAPCGDGALFDKSCSDRAMESTESRHYPVFENPKQGKLRTKVENGEGTIPVESSDIVPTWDGIRLGERLRTMSCSDKILRWNVLGLQGALLTHFLQPIYLKSVTLGYLFSQGHLTRAICCRVTRDGSAFEDGLRHPFIVNHPKVGRVSIYDSKRQSGKTKETSVNWCLADGYDLEILDGTRGTVDGPRNELSRVSKKNIFLLFKKLCSFRYRRDLLRLSYGEAKKAARDYETAKNYFKKGLKDMGYGNWISKPQEEKNFYLCPV",–,binds,binds,–
"HA-ADAR (protein, UniProt P55265 1-1226) MNPRQGYSLSGYYTHPFQGYEHRQLRYQQPGPGSSPSSFLLKQIEFLKGQLPEAPVIGKQTPSLPPSLPGLRPRFPVLLASSTRGRQVDIRGVPRGVHLRSQGLQRGFQHPSPRGRSLPQRGVDCLSSHFQELSIYQDQEQRILKFLEELGEGKATTAHDLSGKLGTPKKEINRVLYSLAKKGKLQKEAGTPPLWKIAVSTQAWNQHSGVVRPDGHSQGAPNSDPSLEPEDRNSTSVSEDLLEPFIAVSAQAWNQHSGVVRPDSHSQGSPNSDPGLEPEDSNSTSALEDPLEFLDMAEIKEKICDYLFNVSDSSALNLAKNIGLTKARDINAVLIDMERQGDVYRQGTTPPIWHLTDKKRERMQIKRNTNSVPETAPAAIPETKRNAEFLTCNIPTSNASNNMVTTEKVENGQEPVIKLENRQEARPEPARLKPPVHYNGPSKAGYVDFENGQWATDDIPDDLNSIRAAPGEFRAIMEMPSFYSHGLPRCSPYKKLTECQLKNPISGLLEYAQFASQTCEFNMIEQSGPPHEPRFKFQVVINGREFPPAEAGSKKVAKQDAAMKAMTILLEEAKAKDSGKSEESSHYSTEKESEKTAESQTPTPSATSFFSGKSPVTTLLECMHKLGNSCEFRLLSKEGPAHEPKFQYCVAVGAQTFPSVSAPSKKVAKQMAAEEAMKALHGEATNSMASDNQPEGMISESLDNLESMMPNKVRKIGELVRYLNTNPVGGLLEYARSHGFAAEFKLVDQSGPPHEPKFVYQAKVGGRWFPAVCAHSKKQGKQEAADAALRVLIGENEKAERMGFTEVTPVTGASLRRTMLLLSRSPEAQPKTLPLTGSTFHDQIAMLSHRCFNTLTNSFQPSLLGRKILAAIIMKKDSEDMGVVVSLGTGNRCVKGDSLSLKGETVNDCHAEIISRRGFIRFLYSELMKYNSQTAKDSIFEPAKGGEKLQIKKTVSFHLYISTAPCGDGALFDKSCSDRAMESTESRHYPVFENPKQGKLRTKVENGEGTIPVESSDIVPTWDGIRLGERLRTMSCSDKILRWNVLGLQGALLTHFLQPIYLKSVTLGYLFSQGHLTRAICCRVTRDGSAFEDGLRHPFIVNHPKVGRVSIYDSKRQSGKTKETSVNWCLADGYDLEILDGTRGTVDGPRNELSRVSKKNIFLLFKKLCSFRYRRDLLRLSYGEAKKAARDYETAKNYFKKGLKDMGYGNWISKPQEEKNFYLCPV",–,–,–,binds
